Test: in vivo
Conditions: mouse, blood

## CC1=C(C(=O)O)N2C(=O)[C@@H](NC(=O)[C@H](N)c3ccccc3)[C@H]2SC1 [Cephalexin]
im, 20 mg/kg, AUC*, Run 1, * mean of 3 runs
  AUC: 16000 ng·h/mL
im, 20 mg/kg, 20 mg/kg, i.m., Run 1 (Cephalexin: * mean of 3 runs)
  Cmax: 26000 ng/mL
po, 20 mg/kg, AUC*, Run 1, * mean of 3 runs
  AUC: 14000 ng·h/mL
po, 20 mg/kg, 20 mg/kg, p.o., Run 1 (Cephalexin: * mean of 3 runs)
  Cmax: 11000 ng/mL
po, 100 mg/kg, AUC, 100 mg/kg, p.o., Run 1 (Cephalexin: * mean of 3 runs)
  AUC: 57000 ng·h/mL
po, 100 mg/kg, 100 mg/kg, p.o., Run 1 (Cephalexin: * mean of 3 runs)
  Cmax: 47000 ng/mL

Reference: patent US4520022A, “Substituted vinyl cephalosporins” (priority 1983, dated 1985)
